This assay deals with METTL8 fused to the Twin-Strep tag at the C-terminus (human) (UniProt Q9H825). Nature of the assay: pull-down.

Chains of the proteins cited; added tags and fusions are not shown. Lines headed by an entry give the natural chain unless they say otherwise; changes in a name come on top. Residues count along the entry.
UniProt Q9H825: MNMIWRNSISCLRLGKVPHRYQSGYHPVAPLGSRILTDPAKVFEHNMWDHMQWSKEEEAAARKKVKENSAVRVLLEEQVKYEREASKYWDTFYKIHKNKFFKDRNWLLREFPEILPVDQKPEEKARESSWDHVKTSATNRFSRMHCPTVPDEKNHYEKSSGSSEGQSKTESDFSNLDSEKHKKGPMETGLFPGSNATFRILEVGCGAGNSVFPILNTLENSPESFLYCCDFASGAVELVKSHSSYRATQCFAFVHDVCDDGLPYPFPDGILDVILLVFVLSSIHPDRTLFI
UniProt Q9NP81, residues 35-518: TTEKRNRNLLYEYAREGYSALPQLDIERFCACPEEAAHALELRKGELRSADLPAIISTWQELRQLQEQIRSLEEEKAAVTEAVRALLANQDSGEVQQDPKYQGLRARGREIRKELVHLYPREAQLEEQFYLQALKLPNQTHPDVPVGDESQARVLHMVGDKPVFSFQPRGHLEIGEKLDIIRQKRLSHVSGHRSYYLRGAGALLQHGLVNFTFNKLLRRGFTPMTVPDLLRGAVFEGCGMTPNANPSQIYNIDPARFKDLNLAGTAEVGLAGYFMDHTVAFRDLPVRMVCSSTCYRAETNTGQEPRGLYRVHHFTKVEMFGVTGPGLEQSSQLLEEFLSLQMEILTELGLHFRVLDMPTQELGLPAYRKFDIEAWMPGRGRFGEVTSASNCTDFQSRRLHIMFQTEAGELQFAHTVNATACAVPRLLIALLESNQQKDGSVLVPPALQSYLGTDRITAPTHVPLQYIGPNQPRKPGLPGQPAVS

Results are given in words; binding and its absence hold for the method and conditions named. In cells and extracts the contact can be indirect. A result given as binding can be weak or reduced; the word gives no strength.

For the substance “endogenous mitochondrial seryl-tRNA synthetase (SARS2) (from UniProt Q9NP81 35-518) (enzyme)”, the binding entry is on record as “binds”.

“FLAG-tagged SARS2 (mitochondrial seryl-tRNA synthetase) (from UniProt Q9NP81 35-518) (enzyme)”: the binding result is “binds”.

The values are drawn from article PMC8980813.
